# Results taken from the supplement of paper PMC3334620.
# Over roughly 33,000 sequences, “E-score (-0.5 to 0.5)” has its median near -0.015; the highest 2% begin near 0.3. The list shows a part of the results.
# Target: T1, Abf1 (UniProt P14164)
# T1 sequence: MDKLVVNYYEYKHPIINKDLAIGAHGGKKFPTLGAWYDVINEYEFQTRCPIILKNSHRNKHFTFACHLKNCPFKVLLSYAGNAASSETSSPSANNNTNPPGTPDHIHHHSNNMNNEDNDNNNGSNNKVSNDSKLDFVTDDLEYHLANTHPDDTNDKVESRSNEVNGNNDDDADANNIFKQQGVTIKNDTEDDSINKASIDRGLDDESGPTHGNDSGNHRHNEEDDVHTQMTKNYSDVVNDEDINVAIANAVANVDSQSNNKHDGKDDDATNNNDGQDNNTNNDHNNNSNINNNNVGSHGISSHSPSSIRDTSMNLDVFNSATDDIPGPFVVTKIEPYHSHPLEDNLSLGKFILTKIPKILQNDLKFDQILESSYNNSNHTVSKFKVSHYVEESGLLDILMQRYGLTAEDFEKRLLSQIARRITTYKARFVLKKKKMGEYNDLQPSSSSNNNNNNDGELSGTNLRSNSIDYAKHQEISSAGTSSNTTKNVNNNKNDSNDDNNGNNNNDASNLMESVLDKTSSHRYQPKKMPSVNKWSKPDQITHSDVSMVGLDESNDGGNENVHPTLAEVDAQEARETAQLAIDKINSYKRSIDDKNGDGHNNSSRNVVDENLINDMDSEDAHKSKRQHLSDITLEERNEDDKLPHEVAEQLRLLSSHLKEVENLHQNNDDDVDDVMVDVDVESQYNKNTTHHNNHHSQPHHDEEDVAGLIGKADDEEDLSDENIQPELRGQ
# Assay: PBM E-score (8-mer binding enrichment) (E-score (-0.5 to 0.5)); higher = stronger / more preferred TF binding
# Settings: protein concentration: 200 nM; construct: GST-full length
# How it was run: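 Using PURExpress in vitro transcription/translation, GST-tagged yeast transcription factors were made in full-length or DNA-binding-domain form. These were applied at about 100-200 nM to double-stranded universal all-10-mer Agilent arrays, and bound protein was detected with fluorescent anti-GST. Scans were normalised with masliner before the Universal PBM Analysis Suite assigned E-scores to ungapped eight-base words pooled with their reverse complements.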
row,Sequence,PBM E-score
1,GTTCTGTA,-0.0186
2,ATACGAGC,0.277
3,CATGCTGA,-0.0653
4,CAACGCCA,-0.171
5,TTCCCAAA,0.0671
6,ACGTGCGC,0.0786
7,TAAAAAGA,-0.00289
8,GCCCTATA,0.0326
9,ATCCGGCC,-0.0222
10,CTTGACAC,-0.0997
11,ATGTGTAA,0.0133
12,CAGTGCGC,-0.282
13,GAACATCA,0.246
14,GCTCGTCC,0.0926
15,ACGACGAC,0.292
16,GAGTTAAC,-0.0338
17,CCAGGCGC,-0.195
18,CGTGATTA,0.248
19,AGGCTATG,-0.0835
20,CTGGAACC,-0.144
21,AACCAGCT,0.192
22,AGTCAGAT,0.0195

# 3 entries from above, set out differently.
row	Sequence	PBM E-score
1	GTTCTGTA	-0.0186
19	AGGCTATG	-0.0835
22	AGTCAGAT	0.0195

# Going on with the list:

row,Sequence,PBM E-score
1,CTTAACGC,-0.101
2,ACCCCAGG,-0.3
3,CCAATGGA,-0.107
4,CAGCTGGC,-0.209
5,GAAGCATC,-0.0613
6,CGTTGACC,0.0177
7,ACCGCAGA,-0.134
8,GCTTATAA,0.0527
9,AGATCAAT,0.12
10,AGGTCTAT,-0.0302
11,TCTCGAGA,0.302
12,GATCTAGC,0.0373
13,CCGATAAG,-0.0762
14,AATTTGAA,0.0915
15,AGCCGAGG,-0.146
16,CTATATGC,0.00873
17,CGACGCTA,0.137
18,AACATACT,0.19
19,TAACACCA,0.0537
20,CATAAGCA,-0.13
21,ACATGTTA,0.112
22,CTAGTATC,0.0503

row,Sequence,PBM E-score
1,GATTGAAA,0.0603
2,ACATTATG,0.182
3,AGGTGTGC,-0.199
4,AGCCTTAG,-0.217
5,CCCGTGCA,0.0856
6,CCTCAGAG,-0.357
7,GTCCCAGA,-0.0431
8,CGAACATC,0.12
9,AGTCTGGC,-0.191
10,TACGCGCA,0.0188
11,ACGACAGT,0.236
12,AATACTCA,0.162
13,ATAGGGGG,-0.334
14,ATAGTGGC,-0.018
15,AAGGCTGG,-0.0746
16,CCCAAAAG,-0.135
17,CTCACGAC,0.199
18,AGTGGAGA,-0.00617
19,AGTAGAGA,-0.103
20,CTAGGACC,-0.307
21,CTCGGTAC,0.0166
22,TACCGGAA,-0.0691

row,Sequence,PBM E-score
1,CCCGACAA,0.0221
2,CCCGCGTA,-0.167
3,AGTATAAA,0.252
4,CGTCTGTA,0.139
5,ACAATGGG,-0.045
6,GCGCTCAC,-0.0532
7,AGGATGAA,-0.0322
8,ATGGGCAC,0.0779
9,GAGCGGGC,-0.188
10,AGACAATC,0.11
11,AAAGCTCA,-0.0175
12,GAAACCCA,0.086
13,CTTAACAA,0.0437
14,AGTCCCGG,-0.367
15,CACGTTAA,-0.0533
16,AGCTGCGG,-0.329
17,GCGCTATA,-0.0492
18,ATCTGTTG,-0.16
19,TGAGACCA,-0.107
20,CTGCACGC,-0.24
